In this assay the target is T1, Lymphoid-specific helicase (LSH), stably expressed in 293T cells (UniProt Q9NRZ9).
T1 sequence: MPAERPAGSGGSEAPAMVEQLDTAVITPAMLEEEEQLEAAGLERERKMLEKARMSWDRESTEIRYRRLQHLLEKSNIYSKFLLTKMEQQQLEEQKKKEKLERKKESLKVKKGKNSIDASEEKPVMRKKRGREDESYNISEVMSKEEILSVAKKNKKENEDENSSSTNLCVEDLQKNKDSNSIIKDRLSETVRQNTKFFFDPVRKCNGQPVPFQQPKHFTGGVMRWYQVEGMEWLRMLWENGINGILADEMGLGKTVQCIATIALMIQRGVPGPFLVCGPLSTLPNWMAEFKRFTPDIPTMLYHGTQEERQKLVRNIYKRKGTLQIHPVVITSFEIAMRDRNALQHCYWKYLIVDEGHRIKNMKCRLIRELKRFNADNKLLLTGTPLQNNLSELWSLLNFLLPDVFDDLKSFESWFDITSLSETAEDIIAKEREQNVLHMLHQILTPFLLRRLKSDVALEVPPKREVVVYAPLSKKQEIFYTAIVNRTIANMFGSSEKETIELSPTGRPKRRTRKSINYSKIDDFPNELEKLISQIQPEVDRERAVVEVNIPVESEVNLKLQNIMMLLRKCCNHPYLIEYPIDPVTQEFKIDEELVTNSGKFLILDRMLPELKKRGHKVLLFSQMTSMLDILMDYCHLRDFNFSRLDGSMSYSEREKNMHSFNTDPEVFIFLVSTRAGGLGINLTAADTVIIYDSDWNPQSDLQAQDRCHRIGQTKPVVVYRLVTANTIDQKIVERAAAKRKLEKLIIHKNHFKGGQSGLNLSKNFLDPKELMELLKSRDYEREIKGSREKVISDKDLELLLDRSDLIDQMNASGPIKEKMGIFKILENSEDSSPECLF
Put plainly: affinity purification with mass spectrometry; LSH-interacting proteins identified by mass spectrometry in 293T cells stably expressing LSH.

Amino acid sequences for entries named in this document (tags omitted).
UniProt P45974: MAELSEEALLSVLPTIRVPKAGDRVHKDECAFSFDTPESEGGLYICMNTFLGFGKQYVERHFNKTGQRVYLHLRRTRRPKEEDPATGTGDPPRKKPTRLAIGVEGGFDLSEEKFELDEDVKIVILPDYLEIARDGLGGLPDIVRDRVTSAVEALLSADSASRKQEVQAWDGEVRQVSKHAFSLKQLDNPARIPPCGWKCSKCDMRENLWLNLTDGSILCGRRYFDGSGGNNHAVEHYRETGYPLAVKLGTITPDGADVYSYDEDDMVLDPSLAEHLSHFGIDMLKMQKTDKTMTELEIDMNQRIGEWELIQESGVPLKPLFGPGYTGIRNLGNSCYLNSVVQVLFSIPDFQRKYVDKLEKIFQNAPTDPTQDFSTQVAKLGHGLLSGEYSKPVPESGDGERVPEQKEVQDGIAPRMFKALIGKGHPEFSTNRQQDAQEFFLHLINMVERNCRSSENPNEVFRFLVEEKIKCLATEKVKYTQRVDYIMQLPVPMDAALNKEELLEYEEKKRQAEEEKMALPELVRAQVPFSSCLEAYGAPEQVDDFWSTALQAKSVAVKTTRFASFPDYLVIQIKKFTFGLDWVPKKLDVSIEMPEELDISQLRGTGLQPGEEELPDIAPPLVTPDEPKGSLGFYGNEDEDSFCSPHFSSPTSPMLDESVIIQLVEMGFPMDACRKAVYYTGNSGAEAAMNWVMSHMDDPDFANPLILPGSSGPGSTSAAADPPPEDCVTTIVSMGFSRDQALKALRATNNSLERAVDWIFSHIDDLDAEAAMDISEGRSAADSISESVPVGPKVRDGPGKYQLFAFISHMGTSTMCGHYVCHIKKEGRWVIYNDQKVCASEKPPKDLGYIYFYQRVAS

No constants are given. Whether binding was seen depends on the method and setting. In cells and extracts the contact can be indirect. Here binding means that the protein was enriched with, or labelled near, the bait; the list need not be complete.

Regarding “Ubiquitin-specific protease 5 (USP5), endogenous in 293T cells (from UniProt P45974 1-858) (enzyme)”, the binding result is recorded as “binds”.

For the origin of these results see publication PMC10363799.
